# According to patent publication US20230374043A1, “Hexadeca Ammonium-Modified Phthalocyanine and Preparation Method and Use Thereof as Photodynamic Drug” (Fuzhou University, priority 2020, published 2023):
# Assay: singlet oxygen yield in water after photosensitization
# Type: physicochemical
row,Molecule,singlet oxygen yield
1,"C[N+](C)(C)c1cccc(Oc2cc3c(cc2Oc2cccc([N+](C)(C)C)c2)C2=[N+]4C3=Nc3c5ccccc5c5[n]3[Zn@]43[n]4c(c6ccccc6c4=N2)=NC2=[N+]3C(=N5)c3ccccc32)c1 [Example 2, 2,3-bis[3-(trimethylammonium)phenoxy]zinc phthalocyanine diiodate]",0.42
2,C[N+](C)(C)c1cccc(Oc2c(Oc3cccc([N+](C)(C)C)c3)c(Oc3cccc([N+](C)(C)C)c3)c3c(c2Oc2cccc([N+](C)(C)C)c2)C2=Nc4c5ccccc5c5[n]4[Zn@]46[n]7c(c8ccccc8c7=NC3=[N+]24)=NC2=[N+]6C(=N5)c3ccccc32)c1 [Example 4],0.19
3,"C[N+](C)(C)c1cccc(Oc2cc3c(cc2Oc2cccc([N+](C)(C)C)c2)C2=[N+]4C3=Nc3c5cc(Oc6cccc([N+](C)(C)C)c6)c(Oc6cccc([N+](C)(C)C)c6)cc5c5[n]3[Zn]43[n]4c(c6cc(Oc7cccc([N+](C)(C)C)c7)c(Oc7cccc([N+](C)(C)C)c7)cc6c4=NC4=[N+]3C(=N5)c3cc(Oc5cccc([N+](C)(C)C)c5)c(Oc5cccc([N+](C)(C)C)c5)cc34)=N2)c1 [Example 6, 2,3,9,10,16,17,23,24-octa[3-(trimethylammonium)phenoxy]zinc phthalocyanine octaiodate]",0.14
4,hexadeca-[3-(dimethylammonium)phenoxy]zinc phthalocyanine hexadecaiodate [Example 8],0.44
